Reference: patent publication US20140329289

Amino acid sequences for entries named in this document (tags omitted). Residues count along the entry.
UniProt P08603, 19-1231: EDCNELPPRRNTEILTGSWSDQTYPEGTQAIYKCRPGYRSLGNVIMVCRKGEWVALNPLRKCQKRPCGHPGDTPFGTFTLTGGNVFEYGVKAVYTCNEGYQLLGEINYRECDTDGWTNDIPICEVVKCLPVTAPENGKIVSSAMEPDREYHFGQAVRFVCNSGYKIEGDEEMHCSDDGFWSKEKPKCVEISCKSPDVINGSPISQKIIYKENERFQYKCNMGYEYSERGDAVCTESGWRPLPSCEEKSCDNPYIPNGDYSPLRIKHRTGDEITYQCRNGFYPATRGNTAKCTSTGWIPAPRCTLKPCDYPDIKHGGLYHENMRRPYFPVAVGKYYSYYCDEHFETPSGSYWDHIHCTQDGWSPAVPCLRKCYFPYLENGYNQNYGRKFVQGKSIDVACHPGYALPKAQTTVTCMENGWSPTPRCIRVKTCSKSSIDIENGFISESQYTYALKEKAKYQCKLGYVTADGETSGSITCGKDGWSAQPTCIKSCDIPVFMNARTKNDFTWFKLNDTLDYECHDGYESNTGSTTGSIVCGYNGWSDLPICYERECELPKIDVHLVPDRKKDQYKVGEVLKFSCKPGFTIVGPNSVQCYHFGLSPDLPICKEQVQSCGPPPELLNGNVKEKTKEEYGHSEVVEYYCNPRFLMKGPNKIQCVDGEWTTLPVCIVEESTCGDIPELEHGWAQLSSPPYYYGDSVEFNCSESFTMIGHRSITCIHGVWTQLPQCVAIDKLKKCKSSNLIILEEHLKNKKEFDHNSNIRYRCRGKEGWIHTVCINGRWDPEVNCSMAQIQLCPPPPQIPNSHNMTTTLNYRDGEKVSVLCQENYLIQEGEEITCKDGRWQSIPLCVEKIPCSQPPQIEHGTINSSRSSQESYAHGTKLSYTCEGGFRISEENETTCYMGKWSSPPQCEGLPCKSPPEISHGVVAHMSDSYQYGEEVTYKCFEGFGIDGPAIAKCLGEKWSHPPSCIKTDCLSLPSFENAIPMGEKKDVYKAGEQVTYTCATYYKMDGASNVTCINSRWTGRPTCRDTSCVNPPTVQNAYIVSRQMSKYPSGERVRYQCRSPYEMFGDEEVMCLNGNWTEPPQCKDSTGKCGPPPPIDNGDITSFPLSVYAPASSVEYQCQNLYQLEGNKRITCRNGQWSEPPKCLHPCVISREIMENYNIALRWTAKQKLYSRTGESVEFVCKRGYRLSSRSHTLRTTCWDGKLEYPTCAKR

Tests used:
[1] = molecular target: Factor H (complement factor H), plasma (Homo sapiens) (UniProt P08603); assay: SPR; settings: lowest of 5 truncations, affinity lower than MaptH1.1 parent; 50 mM NaCl, 50 mM MgCl2, pH 7.5; purified native protein; single-stranded DNA; variant of …
[2] = molecular target: Factor H, recombinant (Homo sapiens) (UniProt P08603); assay: pull-down; settings: affinity chromatography from culture supernatant; single pure band eluted with EDTA (2% of A254); 10 mM MgCl2, 50 mM NaCl, pH 7.5; protein in an extract; protein details: culture supernatant of recombinant producer cells; label: biotin; single-stranded DNA

Sequence	binding result [1]	binding result [2]
CACGGGTCAGGCGGTTATACGGTG [MaptH1.1 N22-45]	binds more weakly	–
GGGTCAATGCCAGGTCTCGGGCACGGGTCAGGCGGTTATACGGTGCCCATTGTTCTTTATCGGCTCGCAAGCAGTC [MaptH1.1]	–	binds

For some assays here: Weaker means in comparison with the reference protein, sequence or condition of that experiment. For some assays here: For at least one entry, the source does not settle the construct or the ends of the probe. For some assays here: Results from cells or extracts need not show a direct contact.
